Measured data: PubChem BioAssay AID1259405 (NCATS, 2018)
Here is a random part of about 50,000 reagents tested. About 4,000 of all reagents (8%) were called active. 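Mouse siRNA library applied to hamster cells; one well for each siRNA.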 Entries without a mark were called inactive. The numbers tell different reagents against one gene apart.

Assay: 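Silenced genes that increase secreted GFP made by CHO cells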 (primary screen)
System: Chinese hamster CHO-K1 ovary cells with stable secreted eGFP expression
Reagents: single siRNA against mouse genes, 0.8 pmol siRNA per well (2 µl of 400 nM stock)
Timing: 3 days
Detection: 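Percent of the per-plate non-targeting control median for intracellular GFP per well by laser scanning cytometry and for cell viability by ATP luminescence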
Scale: GFP, % of control: higher = more GFP per well, higher productivity; viability (ATP), % of control: higher = more viable cells (more ATP)
Hit rule: 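a knock-down is called active if GFP reaches 120% or more of non-targeting control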

gene	reagent no.	GFP, % of control	viability (ATP), % of control
Ctnnbl1	1	78	85.2
Ctnnbl1	2	44	43.8
Ctnnbl1	3	85.8	108
Or4a47	1	51.9	52.2
Or4a47	2	149 (active)	101
Or4a47	3	72.2	101
Tsga10	1	66.7	46.7
Tsga10	2	45.4	57.6
Tsga10	3	73.1	92.8
Tbx3	1	82.7	62.8
Tbx3	2	61.7	64.6
Tbx3	3	81.9	72.7
Snrnp40	1	22.1	30.1
Snrnp40	2	62.6	89
Snrnp40	3	56.6	62.1
Tatdn1	1	41.6	37.2
Tatdn1	2	116	122
Tatdn1	3	99.4	43.6
Golga3	1	84.9	74.4
Golga3	2	87.4	91.8
Golga3	3	99.3	83.7
Acad11	1	112	107
Acad11	2	100	97.7
Slx4ip	1	35.4	24.7
Slx4ip	2	52.9	59.9
Slx4ip	3	94.8	74.2
Or8g34	1	80.8	85.7
Or8g34	2	44.5	51.2
Or8g34	3	84.4	76.9
Hmmr	1	107	91
Hmmr	2	63.8	51.9
Bex1	1	103	74.7
Bex1	2	53	53.6
Bex1	3	69.9	90.4
Slc1a6	1	70	53.2
Slc1a6	2	124 (active)	95.6
Slc1a6	3	77.4	67.2
Zfp747	1	97.7	88.3
Zfp747	2	32.1	78.8
Zfp747	3	115	82.7
Scgb1a1	1	45.3	59.6
Scgb1a1	2	63.9	87
Scgb1a1	3	39.2	30
Rbbp9	1	110	72.6
Rbbp9	2	94.8	80.1
Rbbp9	3	96.1	80.2
Stx8	1	126 (active)	114
Stx8	2	95.7	77.4
Bfar	1	59.4	79.5
Bfar	2	49	44.4
Bfar	3	58.2	86.2
Bfar	4	100	64.9
Bfar	5	87.1	62.8
Bfar	6	84	108
Sec16b	1	134 (active)	111
Sec16b	2	45	52
Sec16b	3	63	67.1

4 entries from above, sorted by “GFP, % of control”, ascending.
gene	reagent no.	GFP, % of control	viability (ATP), % of control
Zfp747	2	32.1	78.8
Scgb1a1	1	45.3	59.6
Scgb1a1	2	63.9	87
Zfp747	3	115	82.7
